Earlier results in US12130283B2, “Methods, systems and compositions for functional in vitro cellular models of mammalian systems” (University of Central Florida Research Foundation, Inc., priority 2012, dated 2024).
At least one structure is not confirmed: it was looked up by name or label, or the drawing left a doubt.

Test system: MDR cancer
Conditions: with doxorubicin in the μCCA; not observable in multi-well plate assays; cited from earlier work

For COC(=O)C1=C(C)NC(C)=C(C(=O)OCCN(C)Cc2ccccc2)C1c1cccc([N+](=O)[O-])c1 (stereo not shown) [nicardipine], the “action of the two MDR suppressors in combination” value is listed as “synergistic”.
